Values of other authors as cited in patent US20050209299A1, “Inhibition of mixed lineage kinases and uses therefor” (University of Maryland, Baltimore, priority 2004, published 2005).
At least one structure is not confirmed: it was looked up by name or label, or the drawing left a doubt.

System: MLK3
Conditions: inhibition of HSP90, reported (5); cited from earlier work

In the case of `COC1=C2C[C@@H](C)C[C@H](OC)[C@H](O)[C@@H](C)/C=C(\C)[C@H](OC(N)=O)[C@@H](OC)/C=C\C=C(/C)C(=O)NC(=CC1=O)C2=O` [geldanamycin], the “MLK3 stability and expression” value is listed as “decreased MLK3 stability and expression”.
